# Counter-ions that a name gives are not always drawn. The list shows a part of the results. Most entries show no effect beyond the scatter of the controls.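 Reh, a human leukemia cell line, is read out by flow cytometry as the median γH2AX antibody signal in S-phase cells; the score counts standard deviations from the median difference of each paired plate set. Scores above 2.5 were candidate hits; scores below -2 mark compounds lowering MK1775-induced damage.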
# Test system: Reh
# Assay: Z' of S-phase gammaH2AX difference (drug + MK1775 minus drug alone) (Z-score); higher = stronger synergistic S-phase DNA damage with MK1775
# Conditions: MK1775 concentration 400 nM; first compound 10 µM; 4 h
row,Compound,Z' of S-phase gammaH2AX difference (Z-score)
1,"CCCN1CCc2cc(O)cc3c2[C@H]1Cc1ccc(O)c(O)c1-3 [R(-)-2,10,11-Trihydroxy-N-propylnoraporphine hydrobromide] + C=CCn1c(=O)c2cnc(Nc3ccc(N4CCN(C)CC4)cc3)nc2n1-c1cccc(C(C)(C)O)n1 [MK1775]",inactive: -0.236
2,C[C@@]12N[C@@H](Cc3ccccc31)c1ccccc12 [(-)-MK-801 hydrogen maleate] + C=CCn1c(=O)c2cnc(Nc3ccc(N4CCN(C)CC4)cc3)nc2n1-c1cccc(C(C)(C)O)n1 [MK1775],inactive: 0.398
3,C#CCN[C@H](C)Cc1ccccc1 [R-(-)-Desmethyldeprenyl hydrochloride] + C=CCn1c(=O)c2cnc(Nc3ccc(N4CCN(C)CC4)cc3)nc2n1-c1cccc(C(C)(C)O)n1 [MK1775],inactive: -0.0607
4,CCCN(CCC)[C@@H]1CCc2cccc(O)c2C1 [R-(+)-8-Hydroxy-DPAT hydrobromide] + C=CCn1c(=O)c2cnc(Nc3ccc(N4CCN(C)CC4)cc3)nc2n1-c1cccc(C(C)(C)O)n1 [MK1775],inactive: -0.0947
5,Cc1nnc2ccc(-c3cccc(C(F)(F)F)c3)nn12 + C=CCn1c(=O)c2cnc(Nc3ccc(N4CCN(C)CC4)cc3)nc2n1-c1cccc(C(C)(C)O)n1 [MK1775],inactive: 1.31
6,CC1(C(=O)O)C2CCC(O2)C1(C)C(=O)O (stereo not given) [Cantharidic Acid] + C=CCn1c(=O)c2cnc(Nc3ccc(N4CCN(C)CC4)cc3)nc2n1-c1cccc(C(C)(C)O)n1 [MK1775],inactive: 0.825
7,CC(C)(C)NCC(O)c1ccccc1Cl (stereo not given) [Tulobuterol hydrochloride] + C=CCn1c(=O)c2cnc(Nc3ccc(N4CCN(C)CC4)cc3)nc2n1-c1cccc(C(C)(C)O)n1 [MK1775],inactive: -0.505
8,CC[C@H]1CN2CCc3cc(OC)c(OC)cc3[C@@H]2C[C@@H]1C[C@H]1NCCc2cc(OC)c(OC)cc21 [Emetine dihydrochloride hydrate] + C=CCn1c(=O)c2cnc(Nc3ccc(N4CCN(C)CC4)cc3)nc2n1-c1cccc(C(C)(C)O)n1 [MK1775],inactive: -2.69
9,COc1cc([C@@H]2c3cc4c(cc3[C@H](O)[C@H]3COC(=O)[C@H]23)OCO4)cc(OC)c1OC [Podophyllotoxin] + C=CCn1c(=O)c2cnc(Nc3ccc(N4CCN(C)CC4)cc3)nc2n1-c1cccc(C(C)(C)O)n1 [MK1775],inactive: -0.0388
10,CS(=N)(=O)CC[C@H](N)C(=O)O (stereo partly drawn) [L-Methionine sulfoximine] + C=CCn1c(=O)c2cnc(Nc3ccc(N4CCN(C)CC4)cc3)nc2n1-c1cccc(C(C)(C)O)n1 [MK1775],inactive: 0.0679
